Results reported in patent US20250340603A1, “A METHOD FOR MODULATING PLANT ADAPTATION TRAITS” (CRAG (Centre de Recerca en Agrigenòmica), priority 2021, published 2025).
These are yes or no findings as the source states them, for the method shown. Some binding calls cover weakened binding; strength is not graded here. For some of these results: Sequences can lack the tags named with a protein. One block for each binder: values may come before it.

Amino acid sequences for entries named in this document (tags omitted). A change or cut given only in a name is not applied to a line headed by its entry.
UniProt Q9LJF3: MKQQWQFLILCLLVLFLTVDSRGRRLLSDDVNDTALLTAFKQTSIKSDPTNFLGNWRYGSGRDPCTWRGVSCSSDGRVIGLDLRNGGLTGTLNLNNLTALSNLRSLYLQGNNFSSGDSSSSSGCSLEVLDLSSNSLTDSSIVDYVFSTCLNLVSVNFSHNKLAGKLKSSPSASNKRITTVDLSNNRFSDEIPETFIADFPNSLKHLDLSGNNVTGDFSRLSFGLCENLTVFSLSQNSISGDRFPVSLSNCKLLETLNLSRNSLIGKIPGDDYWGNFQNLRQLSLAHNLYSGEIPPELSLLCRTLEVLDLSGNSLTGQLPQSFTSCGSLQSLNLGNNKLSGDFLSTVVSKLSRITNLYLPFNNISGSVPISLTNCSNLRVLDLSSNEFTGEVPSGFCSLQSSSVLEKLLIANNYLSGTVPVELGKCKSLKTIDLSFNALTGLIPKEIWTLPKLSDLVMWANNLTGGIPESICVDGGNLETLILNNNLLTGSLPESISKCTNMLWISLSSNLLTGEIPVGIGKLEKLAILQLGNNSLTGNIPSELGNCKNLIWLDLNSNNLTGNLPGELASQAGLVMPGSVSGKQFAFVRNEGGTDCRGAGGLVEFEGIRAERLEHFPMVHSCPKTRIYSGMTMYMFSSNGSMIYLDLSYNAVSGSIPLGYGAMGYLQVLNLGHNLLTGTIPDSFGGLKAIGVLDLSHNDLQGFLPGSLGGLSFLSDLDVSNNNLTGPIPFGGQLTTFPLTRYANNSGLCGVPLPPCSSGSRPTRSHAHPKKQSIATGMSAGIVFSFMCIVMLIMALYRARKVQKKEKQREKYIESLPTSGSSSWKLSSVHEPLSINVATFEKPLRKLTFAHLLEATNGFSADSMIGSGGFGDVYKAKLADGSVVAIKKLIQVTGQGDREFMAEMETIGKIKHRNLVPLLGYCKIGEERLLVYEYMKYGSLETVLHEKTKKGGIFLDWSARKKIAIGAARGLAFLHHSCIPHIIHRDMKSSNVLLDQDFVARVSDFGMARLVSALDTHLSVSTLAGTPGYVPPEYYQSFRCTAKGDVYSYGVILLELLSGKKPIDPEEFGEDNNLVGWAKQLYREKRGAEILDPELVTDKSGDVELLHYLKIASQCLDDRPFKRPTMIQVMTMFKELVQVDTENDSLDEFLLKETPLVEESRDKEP

Tests used:
[1] = target: BRL3 (BRASSINOSTEROID RECEPTOR LIKE 3), full length, fused to a half of YFP (BiFC construct) (Arabidopsis thaliana) (UniProt Q9LJF3); assay: BiFC (split YFP) in Nicotiana benthamiana leaves
[2] = target: BRL3 (BRASSINOSTEROID RECEPTOR LIKE 3), full length, fused to a half of YFP (BiFC construct) (Arabidopsis thaliana) (UniProt Q9LJF3); assay: BiFC (split YFP) in Nicotiana benthamiana leaves, confocal microscopy
[3] = target: BRL3 with C-terminal mVenus or mCherry (FRET-FLIM construct) (Arabidopsis thaliana) (UniProt Q9LJF3); assay: FRET-FLIM, mVenus/mCherry fusions, fluorescence lifetimes of >20 images
[4] = target: BRL3 with C-terminal mVenus or mCherry (FRET-FLIM construct) (Arabidopsis thaliana) (UniProt Q9LJF3); assay: FRET-FLIM, mVenus/mCherry fusions

- binding [1]: binds
- binding [2]: binds
B1: ERD14 (Early-Response to Desiccation 14), full length, fused to a half of YFP (BiFC construct) (protein, not shown: large carriers)
chain: AEEIKNVPEQEVPKVATEESSAEVTDRGLFDFLGKKKDETKPEETPIASEFEQKVHISEPEPEVKHESLLEKLHRSDSSSSSSSEEEGSDGEKRKKKKEKKKPTTEVEVKEEEKKGFMEKLKEKLPGHKKPEDGSAVAAAPVVVPPPVEEAHPVEKKGILEKIKEKLPGYHPKTTVEEEKKDKE

- binding [3]: binds
B2: BAK1 with C-terminal mVenus or mCherry (FRET-FLIM construct) (receptor, Arabidopsis, UniProt Q94F62 26-615, looked up, not shown: large carriers)
chain: NAEGDALSALKNSLADPNKVLQSWDATLVTPCTWFHVTCNSDNSVTRVDLGNANLSGQLVMQLGQLPNLQYLELYSNNITGTIPEQLGNLTELVSLDLYLNNLSGPIPSTLGRLKKLRFLRLNNNSLSGEIPRSLTAVLTLQVLDLSNNPLTGDIPVNGSFSLFTPISFANTKLTPLPASPPPPISPTPPSPAGSNRITGAIAGGVAAGAALLFAVPAIALAWWRRKKPQDHFFDVPAEEDPEVHLGQLKRFSLRELQVASDNFSNKNILGRGGFGKVYKGRLADGTLVAVKRLKEERTQGGELQFQTEVEMISMAVHRNLLRLRGFCMTPTERLLVYPYMANGSVASCLRERPESQPPLDWPKRQRIALGSARGLAYLHDHCDPKIIHRDVKAANILLDEEFEAVVGDFGLAKLMDYKDTHVTTAVRGTIGHIAPEYLSTGKSSEKTDVFGYGVMLLELITGQRAFDLARLANDDDVMLLDWVKGLLKEKKLEALVDVDLQGNYKDEEVEQLIQVALLCTQSSPMERPKMSEVVRMLEGDGLAERWEEWQKEEMFRQDFNYPTHHPAVSGWIIGDSTSQIENEYPSGPR

- binding [1]: binds
- binding [2]: binds
B3: KIN7, full length, fused to a half of YFP (BiFC construct) (receptor, not shown: large carriers)
chain: SDLESDRRALLAVRNSVRGRPLLWNMSASSPCNWHGVHCDAGRVTALRLPGSGLFGSLPIGGIGNLTQLKTLSLRFNSLSGPIPSDFSNLVLLRYLYLQGNAFSGEIPSLLFTLPSIIRINLGENKFSGRIPDNVNSATRLVTLYLERNQLSGPIPEITLPLQQFNVSSNQLNGSIPSSLSSWPRTAFEGNTLCGKPLDTCEAESPNGGDAGGPNTPPEKKDSDKLSAGAIVGIVIGCVVGLLLLLLILFCLCRKRKKEENVPSRNVEAPVAAATSSAAIPKETVVVVPPAKATGSESGAVNKDLTFFVKSFGEFDLDGLLKASAEVLGKGTVGSSYKASFEHGLVVAVKRLRDVVVPEKEFRERLHVLGSMSHANLVTLIAYYFSRDEKLLVFEYMSKGSLSAILHGNKGNGRTPLNWETRAGIALGAARAISYLHSRDGTTSHGNIKSSNILLSDSYEAKVSDYGLAPIISSTSAPNRIDGYRAPEITDARKISQKADVYSFGVLILELLTGKSPTHQQLNEEGVDLPRWVQSVTEQQTPSDVLDPELTRYQPEGNENIIRLLKIGMSCTAQFPDSRPSMAEVTRLIEEVSHSSGSPNPVSD

- binding [3]: binds
- binding [4]: binds
B4: KIN7 with C-terminal mVenus or mCherry (FRET-FLIM construct) (receptor, not shown: large carriers)
chain: B3 chain
